The supplement of paper PMC6078165

Tested on: BT20
Assay: relative JC-1 red fluorescence (viability) vs pre-drug, coculture with fibroblast (fraction); higher = more viable cancer cells
Method: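 JC-1 labelled TNBC cells cocultured 1:1 (1,500 cells each) with CellTrace Violet stained primary or stromal fibroblasts in 384-well plates in FluoroBrite medium, treated with one of 42 anticancer drugs at 0.1, 1, 10 or 100 uM. JC-1 red fluorescence (mitochondrial integrity in cancer cells only) was read by plate reader every 8 h for 72 h. Values are normalised to each well's pre-drug value. The stock of one drug was tenfold lower, so its dose labels may be too high.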

CC(=O)O[C@@]12CO[C@@H]1C[C@H](O)[C@@]1(C)C(=O)[C@H](O)C3=C(C)[C@@H](OC(=O)[C@H](O)[C@@H](NC(=O)OC(C)(C)C)c4ccccc4)C[C@@](O)([C@@H](OC(=O)c4ccccc4)[C@H]21)C3(C)C [Docetaxel]
relative JC-1 red fluorescence
Details	8 h	16 h	24 h	32 h	40 h	48 h	56 h	64 h	72 h
0.1 µM, coculture fibroblast: C12385	0.893	0.806	0.757	0.68	0.603	0.562	0.527	0.516	0.517
0.1 µM, coculture fibroblast: H6013	0.90837	0.86	0.824	0.773	0.725	0.696	0.701	0.684	0.681
0.1 µM, coculture fibroblast: H6019	0.855	0.799	0.785	0.73	0.676	0.65	0.598	0.575	0.564
0.1 µM, coculture fibroblast: H6076	0.881	0.936	0.813	0.77	0.701	0.658	0.63	0.619	0.61
0.1 µM, coculture fibroblast: H6231	0.836	0.916	0.7561	0.688	0.63	0.591	0.541	0.516	0.499
0.1 µM, coculture fibroblast: HADF	0.9677	0.868	0.819	0.755	0.729	0.698	0.678	0.674	0.66
0.1 µM, coculture fibroblast: HCFa	0.895	0.834	0.8	0.722	0.672	0.62	0.577	0.552	0.512
0.1 µM, coculture fibroblast: HCPF	0.899	0.892	0.7959	0.737	0.671	0.632	0.599	0.598	0.555
0.1 µM, coculture fibroblast: HHSteC	0.943	0.878	0.84	0.75	0.705	0.665	0.63	0.611	0.577
0.1 µM, coculture fibroblast: HMF	0.862	0.908	0.8206	0.757	0.684	0.626	0.59	0.562	0.55
0.1 µM, coculture fibroblast: HPFa	0.908	0.895	0.886	0.798	0.781	0.724	0.713	0.696	0.67
0.1 µM, coculture fibroblast: HUF	0.873	0.849	0.823	0.724	0.652	0.592	0.543	0.521	0.511
0.1 µM, coculture fibroblast: Hs5	0.6962	0.927	0.82	0.742	0.68	0.623	0.588	0.552	0.53
0.1 µM, coculture fibroblast: Hs27A	0.762	0.91	0.814	0.867	0.923	0.943	0.868	0.927	0.9083
0.1 µM, coculture fibroblast: Hs343T	0.983	0.89547	0.775	0.706	0.648	0.599	0.553	0.541	0.516
0.1 µM, coculture fibroblast: WS1	0.869	0.797	0.748	0.6641	0.596	0.553	0.5153	0.498	0.491
1 µM, coculture fibroblast: C12385	0.911	0.826	0.754	0.681	0.611	0.564	0.526	0.51	0.501
1 µM, coculture fibroblast: H6013	0.963	0.859	0.859	0.793	0.739	0.725	0.744	0.736	0.73
1 µM, coculture fibroblast: H6019	0.8575	0.7793	0.773	0.721	0.676	0.653	0.618	0.602	0.588
1 µM, coculture fibroblast: H6076	0.894	0.892	0.809	0.771	0.727	0.692	0.67	0.68	0.672
1 µM, coculture fibroblast: H6231	0.8436	0.944	0.799	0.708	0.627	0.557	0.49	0.462	0.429
1 µM, coculture fibroblast: HADF	0.9919	0.92	0.854	0.8	0.761	0.728	0.713	0.7	0.689
1 µM, coculture fibroblast: HCFa	0.941	0.871	0.832	0.752	0.696	0.648	0.621	0.596	0.548
1 µM, coculture fibroblast: HCPF	0.858	0.875	0.791	0.741	0.692	0.646	0.614	0.612	0.583
1 µM, coculture fibroblast: HHSteC	0.911	0.844	0.864	0.778	0.741	0.705	0.686	0.6657	0.633
1 µM, coculture fibroblast: HMF	0.822	0.88017	0.724	0.6303	0.54852	0.49	0.422	0.393	0.369
1 µM, coculture fibroblast: HPFa	0.9183	0.817	0.832	0.73	0.702	0.651	0.657	0.646	0.637
1 µM, coculture fibroblast: HUF	0.926	0.886	0.853	0.769	0.7	0.641	0.611	0.604	0.589
1 µM, coculture fibroblast: Hs5	0.785	0.935	0.847	0.8014	0.748	0.712	0.668	0.654	0.631
1 µM, coculture fibroblast: Hs27A	0.755	0.941	0.895	0.897	0.818	0.766	0.84	0.828	0.783
1 µM, coculture fibroblast: Hs343T	0.914	0.869	0.709	0.596	0.5	0.427	0.3378	0.3	0.263
1 µM, coculture fibroblast: WS1	0.8909	0.81	0.796	0.738	0.679	0.643	0.601	0.597	0.604

Values are relative to the signal before dosing, not to a vehicle control; the signal also falls without drug.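 Fibroblast labels denote human fibroblasts, mainly primary ones from uterus (C12385, HUF), lung (H6013), bone (Hs27A), adrenal (HADF) and skin (WS1), plus mammary HMF and breast cancer-associated Hs343T. Cancer cells are basal-like or mesenchymal-like triple-negative breast cancer lines. A hit is a response shift exceeding 3x replicate standard deviation. The tissue of the other fibroblasts is not given here.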
